Data source: PubChem BioAssay AID686938 (Drosophila RNAi Screening Center, 2013)
The deposit covers about 23,000 reagents; shown is a random part of those with a known target gene and a result. Of all reagents, 75 (0.33%) are marked active. 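Raw plate signals without normalisation; calls rest on plate z-scores that were not deposited; ratio present for only 364 wells.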 Names joined by + are all predicted targets of the reagent. Not given: the dose of the treatment.

Aim: 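Looking for CRAC channel components and the factors controlling them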 (primary screen)
Cell system: Drosophila S2R+ cells
Reagent: long dsRNA against Drosophila genes, about 0.25 µg dsRNA per well, roughly 10,000 cells
Duration: 5 days of knock-down before the calcium assay
Challenge: thapsigargin (SERCA pump blocker) to empty calcium stores; entry signal taken 4 min after adding it
Detection: 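Duplicate raw fluo-4 intensities per well from a plate reader, at rest and four minutes after thapsigargin emptied calcium stores; entry-to-rest ratio filled for only some wells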
Scale: calcium entry signal: higher = stronger calcium signal after store depletion; entry to resting ratio: higher = more calcium entry relative to resting level; resting calcium signal: higher = higher resting calcium signal
Active means: 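Hit if the duplicate-averaged plate z-score for entry over resting signal is under −3; wells with weak total dye signal (Fmax z < −2) or more than 5 off-targets removed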
Calls: active = strongly reduced calcium entry; inactive = no strong reduction

| calcium entry signal, replicate 1 (fluorescence units) | calcium entry signal, replicate 2 (fluorescence units) | entry to resting ratio | resting calcium signal, replicate 1 (fluorescence units) | resting calcium signal, replicate 2 (fluorescence units) | Call | gene knocked down | dsRNA |
| --- | --- | --- | --- | --- | --- | --- | --- |
| 2.40e7 | 3.14e7 | – | 1.27e7 | 1.33e7 | inactive | Ugt50B3 (UDP-glycosyltransferase family 50 member B3) | DRSC04778 |
| 2.28e7 | 3.59e7 | – | 1.22e7 | 1.55e7 | inactive | Ugt50B3 (UDP-glycosyltransferase family 50 member B3) | DRSC04779 |
| 4.41e7 | 3.20e7 | – | 2.54e7 | 1.45e7 | inactive | Ugt50B3 (UDP-glycosyltransferase family 50 member B3) | DRSC21419 |
| 3.34e7 | 3.19e7 | – | 1.55e7 | 1.63e7 | inactive | CG8401 | DRSC07165 |
| 3.36e7 | 4.32e7 | – | 1.62e7 | 2.13e7 | inactive | Unc-115b + p24-2 | DRSC16492 |
| 2.25e7 | 1.96e7 | – | 1.23e7 | 1.09e7 | inactive | GluProRS (Glutamyl-prolyl-tRNA synthetase) | DRSC14095 |
| 4.19e7 | 4.33e7 | – | 2.17e7 | 2.10e7 | inactive | CG32259 | DRSC08082 |
| 3.08e7 | 3.26e7 | – | 1.52e7 | 1.46e7 | inactive | CG9411 | DRSC20184 |
| 2.67e7 | 2.28e7 | – | 1.60e7 | 1.24e7 | inactive | CG12054 | DRSC14467 |
| 4.48e7 | 3.04e7 | – | 2.25e7 | 1.37e7 | inactive | CG12054 | DRSC23137 |
| 3.78e7 | 3.06e7 | – | 1.84e7 | 1.63e7 | inactive | Nup75 (Nucleoporin 75kD) | DRSC06947 |
| 3.14e7 | 3.63e7 | – | 1.71e7 | 1.87e7 | inactive | scw (screw) | DRSC01711 |
| 5.48e7 | 4.60e7 | – | 2.63e7 | 2.04e7 | inactive | scw (screw) | DRSC21252 |
| 2.91e7 | 3.33e7 | – | 1.77e7 | 1.56e7 | inactive | CR43142 (pseudo) | DRSC00962 |
| 4.84e7 | 3.70e7 | – | 2.78e7 | 1.69e7 | inactive | CG33189 | DRSC21427 |
| 2.89e7 | 2.41e7 | – | 1.39e7 | 1.14e7 | inactive | CG5916 | DRSC15917 |
| 3.36e7 | – | – | 1.71e7 | – | inactive | CG42784 | DRSC02534 |
| 2.22e7 | 3.94e7 | – | 1.34e7 | 1.98e7 | inactive | CG42784 | DRSC02535 |
| 2.42e7 | 3.60e7 | – | 1.19e7 | 2.03e7 | inactive | CG42784 | DRSC22272 |
| 3.08e7 | 3.68e7 | – | 1.53e7 | 1.92e7 | inactive | CG42784 | DRSC22804 |
| 4.44e7 | 4.22e7 | – | 2.07e7 | 1.82e7 | inactive | CG42784 | DRSC23000 |
| 4.18e7 | 5.51e7 | – | 2.00e7 | 2.60e7 | inactive | swi2 | DRSC06457 |
| 3.56e7 | 5.94e7 | – | 1.96e7 | 2.40e7 | inactive | wat (waterproof) | DRSC14854 |
| 2.82e7 | 3.23e7 | – | 1.55e7 | 1.55e7 | inactive | CG9514 | DRSC20190 |
| 3.44e7 | 3.20e7 | – | 1.71e7 | 1.39e7 | inactive | CG9514 | DRSC20191 |
| 3.76e7 | 3.85e7 | – | 1.78e7 | 1.75e7 | inactive | CG10252 | DRSC14221 |
| 3.92e7 | 4.00e7 | – | 2.21e7 | 1.84e7 | inactive | et (eye transformer) | DRSC19582 |
| 3.33e7 | 3.16e7 | – | 1.68e7 | 1.76e7 | inactive | lolal (lola like) | DRSC06948 |
| 3.42e7 | 4.07e7 | 2.1 | 1.62e7 | 1.74e7 | inactive | Ugt35D1 (UDP-glycosyltransferase family 35 member D1) | DRSC15107 |
| 3.42e7 | 3.79e7 | – | 1.55e7 | 1.69e7 | inactive | CG8312 | DRSC16406 |
| 4.45e7 | 3.99e7 | – | 1.96e7 | 1.99e7 | inactive | fwd (four wheel drive) | DRSC08580 |
| 2.54e7 | 3.70e7 | – | 1.14e7 | 1.83e7 | inactive | CG11035 | DRSC14287 |
| 4.54e7 | 4.99e7 | – | 2.05e7 | 3.63e7 | inactive | Cont (Contactin) | DRSC12149 |
| 2.86e7 | 2.64e7 | – | 1.63e7 | 1.50e7 | inactive | CG15747 | DRSC19713 |
| 2.60e7 | – | – | 1.94e7 | – | inactive | Syx5 (Syntaxin 5) | DRSC03432 |
| 4.68e7 | 3.98e7 | – | 2.49e7 | 2.15e7 | inactive | Mmp1 (Matrix metalloproteinase 1) | DRSC04493 |
| 2.85e7 | 6.83e7 | – | 1.47e7 | 2.90e7 | inactive | hebe | DRSC05192 |
| 4.54e7 | 3.70e7 | – | 2.02e7 | 1.72e7 | inactive | hebe | DRSC06605 |
| 2.88e7 | 4.08e7 | – | 1.39e7 | 1.69e7 | inactive | hebe | DRSC21614 |
| 3.69e7 | 3.50e7 | – | 1.74e7 | 1.65e7 | inactive | Cpr57A + Obp57d | DRSC06708 |
| 3.92e7 | 3.39e7 | – | 2.08e7 | 1.54e7 | inactive | Cpr57A + Obp57d | DRSC22719 |
| 5.43e7 | 4.37e7 | – | 2.41e7 | 1.84e7 | inactive | SdhBL (Succinate dehydrogenase, subunit B (iron-sulfur)-like) | DRSC20039 |
| 3.40e7 | 5.05e7 | – | 1.66e7 | 6.79e7 | inactive | CG5013 | DRSC15695 |
| 2.81e7 | 3.16e7 | – | 1.34e7 | 1.39e7 | inactive | CG17068 | DRSC20545 |
| 3.32e7 | 3.15e7 | – | 1.57e7 | 1.49e7 | inactive | COX5B (Cytochrome c oxidase subunit 5B) | DRSC02115 |
| 6.45e7 | 7.33e7 | – | 2.56e7 | 2.51e7 | inactive | ABCB7 (ATP binding cassette subfamily B member 7) | DRSC08603 |
| 4.21e7 | 3.66e7 | – | 2.13e7 | 1.80e7 | inactive | Unc50 (Unc50 RNA binding protein) | DRSC16561 |
| 2.25e7 | 5.15e7 | – | 1.81e7 | 2.30e7 | inactive | loh (lonely heart) | DRSC01122 |
| 5.00e7 | 5.81e7 | – | 2.32e7 | 2.46e7 | inactive | loh (lonely heart) | DRSC02943 |
| 2.70e7 | 3.44e7 | – | 1.43e7 | 1.65e7 | inactive | Cf2 (Chorion factor 2) | DRSC00744 |
| 3.90e7 | 3.92e7 | – | 1.79e7 | 1.69e7 | inactive | Cf2 (Chorion factor 2) | DRSC23015 |
| 3.79e7 | 3.22e7 | – | 1.87e7 | 1.63e7 | inactive | mRpL40 (mitochondrial ribosomal protein L40) | DRSC15749 |
| 5.28e7 | 4.35e7 | – | 2.38e7 | 2.15e7 | inactive | CalpA (Calpain-A) | DRSC07352 |
| 3.29e7 | – | – | 1.78e7 | – | inactive | CG5888 | DRSC01929 |
| 4.20e7 | 3.51e7 | – | 2.08e7 | 1.66e7 | inactive | Shaw (Shaker cognate w) | DRSC00433 |
| 4.20e7 | 5.85e7 | – | 2.01e7 | 2.43e7 | inactive | Shaw (Shaker cognate w) | DRSC00788 |
| 4.13e7 | 3.30e7 | – | 2.15e7 | 1.49e7 | inactive | Shaw (Shaker cognate w) | DRSC21368 |
| 3.52e7 | 4.16e7 | – | 1.86e7 | 1.82e7 | inactive | CG15877 | DRSC08485 |
| 4.43e7 | 3.92e7 | – | 2.17e7 | 1.68e7 | inactive | CG10680 | DRSC02093 |
| 4.44e7 | 5.56e7 | – | 2.04e7 | 2.21e7 | inactive | CG43068 | DRSC05538 |
| 3.61e7 | 4.24e7 | – | 1.90e7 | 1.90e7 | inactive | CR42545 (pseudo) | DRSC03709 |
| 1.96e7 | 3.59e7 | – | 3.37e7 | 1.46e7 | inactive | CG14292 | DRSC14772 |
| 4.38e7 | 5.75e7 | 2.2 | 2.01e7 | 2.16e7 | inactive | CR14798 (pseudo) | DRSC17956 |
| 3.52e7 | 5.00e7 | – | 1.80e7 | 2.15e7 | inactive | Ilp3 (Insulin-like peptide 3) | DRSC10168 |
| 5.60e7 | 5.45e7 | – | 2.60e7 | 2.33e7 | inactive | Nepl14 (Neprilysin-like 14) | DRSC15631 |
| 2.52e7 | 3.81e7 | – | 1.30e7 | 1.70e7 | inactive | CG32037 | DRSC10363 |
| 1.94e7 | 2.21e7 | – | 1.13e7 | 1.14e7 | inactive | Prp5 (pre-mRNA processing factor 5) | DRSC19975 |
| 4.19e7 | 5.28e7 | – | 1.87e7 | 2.08e7 | inactive | CG3349 | DRSC10359 |
| 4.24e7 | 4.86e7 | – | 1.90e7 | 3.36e7 | inactive | CG12713 | DRSC09900 |
| 3.11e7 | 4.50e7 | – | 1.54e7 | 1.99e7 | inactive | CG1428 | DRSC03708 |
| 2.36e7 | 2.84e7 | – | 1.48e7 | 1.69e7 | inactive | Prp3 (Precursor RNA processing 3) | DRSC10912 |
| 3.54e7 | 3.48e7 | – | 1.44e7 | 1.64e7 | inactive | Ugt37C1 (UDP-glycosyltransferase family 37 member C1) | DRSC07416 |
| 4.30e7 | 2.52e7 | – | 1.91e7 | 1.30e7 | inactive | dao (down and out) | DRSC01960 |
| 2.93e7 | 3.97e7 | – | 1.59e7 | 1.67e7 | inactive | mIF3 (mitochondrial translation initiation factor 3) | DRSC06290 |
| 3.47e7 | 3.83e7 | – | 1.71e7 | 1.78e7 | inactive | CG3117 | DRSC00568 |
